From patent publication US20220025045A1
These are yes or no findings as the source states them, for the method shown. Some entries that bind do so weakly or less than the wild type.

By UniProt entry, the sequences of proteins in these tests, tags left out. Where a name states a change or a piece, a line headed by the entry shows the natural chain unless it says otherwise.
UniProt Q8NHL6: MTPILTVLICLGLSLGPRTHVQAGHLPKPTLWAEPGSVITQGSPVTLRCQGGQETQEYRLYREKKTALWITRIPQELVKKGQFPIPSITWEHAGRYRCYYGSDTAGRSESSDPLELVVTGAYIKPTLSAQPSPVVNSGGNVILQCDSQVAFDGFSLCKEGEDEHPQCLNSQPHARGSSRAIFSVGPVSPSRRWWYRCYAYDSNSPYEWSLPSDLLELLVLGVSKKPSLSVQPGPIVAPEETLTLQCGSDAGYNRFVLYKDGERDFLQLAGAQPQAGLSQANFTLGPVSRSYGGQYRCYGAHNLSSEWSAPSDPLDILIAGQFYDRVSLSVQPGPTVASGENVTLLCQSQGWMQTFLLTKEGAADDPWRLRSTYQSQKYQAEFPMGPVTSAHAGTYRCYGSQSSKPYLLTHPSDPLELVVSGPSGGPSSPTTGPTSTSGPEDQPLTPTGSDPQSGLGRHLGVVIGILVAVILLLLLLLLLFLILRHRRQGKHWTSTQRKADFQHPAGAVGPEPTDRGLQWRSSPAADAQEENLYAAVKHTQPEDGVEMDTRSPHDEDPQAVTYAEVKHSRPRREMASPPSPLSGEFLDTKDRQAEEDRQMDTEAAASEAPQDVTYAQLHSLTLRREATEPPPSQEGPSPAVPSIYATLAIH
UniProt P22629: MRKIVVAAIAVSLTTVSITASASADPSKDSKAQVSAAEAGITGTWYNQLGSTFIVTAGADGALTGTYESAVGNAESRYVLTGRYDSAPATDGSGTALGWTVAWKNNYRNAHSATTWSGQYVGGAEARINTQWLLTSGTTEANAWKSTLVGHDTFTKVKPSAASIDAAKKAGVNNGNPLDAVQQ

Key:
[1] = molecular target: T1, ILT2-SA tetramer (biotinylated BirA-tagged ILT2 on APC-conjugated streptavidin) (human) (UniProt Q8NHL6+P22629); assay: flow cytometry blocking assay: antibody added to ILT2/APC-streptavidin complexes, then K562 cells expressing HLA-G; blocked ligand HLA-G
[2] = molecular target: T1, ILT2-SA tetramer (biotinylated BirA-tagged ILT2 on APC-conjugated streptavidin) (human); assay: flow cytometry blocking assay: antibody added to ILT2/APC-streptavidin complexes, then WIL2-NS cells expressing HLA-A2; blocked ligand HLA-A2
[3] = molecular target: T1, ILT2-SA tetramer (biotinylated BirA-tagged ILT2 on APC-conjugated streptavidin) (human); assay: flow cytometry blocking assay: antibody pre-incubated with recombinant ILT2 (tetramer according to Example 6), then added to HLA-G-expressing cells; blocked ligand HLA-G; antibody concentration not shown
[4] = molecular target: T1, ILT2-SA tetramer (biotinylated BirA-tagged ILT2 on APC-conjugated streptavidin) (human); assay: flow cytometry blocking assay: antibody pre-incubated with recombinant ILT2 (tetramer according to Example 6), then added to HLA-A2-expressing cells; blocked ligand HLA-A2; antibody concentration not shown

B1: 12D12 (antibody, human IgG1, V domains shown)
VH: QVQLQQPGAELVKPGASVRMSCKASGYTFTSYWVHWVKQRPGQGLEWIGVIDPSDSYTSYNQNFKGKATLTVDTSSKTAYIHLSSLTSEDSAVYFCARGERYDGDYFAMDYWGQGTSVTVSS
VL: DIVMTQSPASLSVSVGETVTITCRASENIYSNLAWYQQKQGKSPQLLVYAATNLADGVPSRFSGSRSGTQYSLKINSLQSEDFGTYYCQHFWNTPRTFGGGTKLEIK
- binding [1]: binds
- binding [2]: binds
- binding [3]: binds
- binding [4]: binds

B2: 18E1 (antibody, human IgG1, V domains shown)
VH: QVQLQQSGAELVKPGASVRLSCKASGYTFTAHTIHWVKQRSGQGLEWIGWLYPGSGSIKYNEKFKDKATLTADKSSSTVYMELSRLTSEDSAVYFCARHTNWDFDYWGQGTTLTVSS
VL: NIVLTQSPASLAVSLGQRATISCKASQSVDYGGASYMNWYQQKPGQPPKLLIYAASNLESGIPARFSGSGSGTDLTLNIHPVEEEDAAMYYCQQSNEEPWTFGGGTKLEIK
- binding [3]: binds
- binding [4]: binds

B3: 26D8 (antibody, human IgG1, V domains shown)
VH: QVQLQQSGAELVKPGASVKLSCKASGYTFTEHTIHWIKQRSGQGLEWIGWFYPGSGSMKYNEKFKDKATLTADKSSSTVYMELTRLTSEDSAVYFCARHTNWDFDYWGQGTTLTVSS
VL: DIVLTQSPASLAVSLGQRATISCKASQSVDYGGDSYMNWYQQKPGQPPKLLIYAASNLESGIPARFSGSGSGTDLTLNIHPVEEDDAAMYYCQQSNEEPWTFGGGTKLEIK
- binding [3]: binds
- binding [4]: binds

B4: 48F12 (antibody, V domains shown)
VH: QVQLKESGPGLVAPSQSLSITCTVSGFSLTSYGVSWVRQPPGKGLEWLGIIWGDGSTNYHSALVSRLSISKDNSKSQVFLKLNSLQTDDTATYYCAKPNWDYYAMDYWGQGTSVTVSS
VL: DIQMTQTTSSLSASLGDRVTISCRASQDISNYLNWYQQKVDGTVKLLISYTSRLHSGVPSRFSGSGSGTDYSLTISNLEQEDIATYFCQQGITLPLTFGAGTKLELK
- binding [1]: binds
- binding [2]: binds
